Results of single-concentration screens

T. brucei: 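Whole-parasite assay of Trypanosoma brucei over 72 hours; the read-out is not stated. Concentration: 30 µM. Higher reads as stronger inhibition (inferred: compounds with an IC50 in retests scored well above the rest). Values scatter widely below zero; nearly all retest evidence comes from the higher of the two concentrations used. Of about 64,000 compounds tested this way, about 940 (1.5%) reached 50% or more in at least one test.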
Toxoplasma: 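Assay of Toxoplasma gondii numbers, read through their beta-galactosidase reporter with a colour substrate. Tested at 10 µM. The record gives no direction; the compounds picked for IC50 retests had high values, so higher reads as fewer parasites. About 67,000 compounds were tested under these conditions; 0.38% (about 260) showed 50% or more at least once.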

Each number is a percent effect as filed.
How 0% and 100% were set is not recorded. Most values in the screen are low, and negative values occur.
Compounds were drawn at random from those tested, without regard to their results.

With CC(C)[C@@H]1CN(Cc2ccccc2C#N)C[C@H]1C(=O)O the screen gave T. brucei: -3.871%; Toxoplasma: -0.5821%.
With Cc1nn(C)cc1CN1CCC(C2Nc3ccccc3S(=O)(=O)N2)CC1 (stereo not shown) the screen gave T. brucei: 14.35%; Toxoplasma: -4.548%.
With Cn1c(C2CCCN2C(=O)CN2CCCC2=O)nc2ccccc21 (stereo not shown) the screen gave T. brucei: -0.2601%; Toxoplasma: -1.42%.
With CCOCC(=O)NC1(c2cccc(Cl)c2)CC1 the screen gave T. brucei: -34.93%; Toxoplasma: 3.161%.
With Cc1cc(N2CCCC2c2nnc3n2CCCCC3)nc(C)n1 (stereo not shown) the screen gave T. brucei: -52.14%; Toxoplasma: 10.33%.
With CC(=O)N1CCCN(C(=O)CCOc2ccc(C(C)C)cc2)CC1 the screen gave T. brucei: -17.35%; Toxoplasma: -26.83%.
With COc1ccc2cnn(CC(=O)NC3CCCC3)c(=O)c2c1OC the screen gave Toxoplasma: -1.984%.
With COCCN(Cc1cnn(C)c1)C(=O)C1COc2c(cccc2OC)C1 (stereo not shown) the screen gave T. brucei: -53.47%; Toxoplasma: 5.066%.
With O=C(NCc1ccon1)Nc1cc(F)ccc1N1CCCCC1 the screen gave T. brucei: -23.39%; Toxoplasma: 4.944%.
With Cc1ccc(CNC(=O)CN2CCN(CCO)CC2)s1 the screen gave T. brucei: -23.14%; Toxoplasma: 4.567%.
With Cc1oc(CNC(=O)Cc2ccc3ccccc3c2)cc1C(=O)O the screen gave T. brucei: -9.658%; Toxoplasma: 1.919%.
With CS(=O)(=O)N1CCN(c2ccnc(N3CCCCC3)n2)CC1 the screen gave T. brucei: -32.66%; Toxoplasma: 4.762%.
With [H][C@@]12COC[C@]1(CNS(C)(=O)=O)CN(C(=O)c1ncccn1)C2 the screen gave T. brucei: -69.54%; Toxoplasma: 6.321%.
With Cn1cc(C(C)(O)CNC(=O)c2ccc(Br)s2)cn1 (stereo not shown) the screen gave T. brucei: -32.59%; Toxoplasma: -13.22%.
With COc1ccc(-n2ccc(C(=O)NCCN3CCCCC3)n2)cc1 the screen gave T. brucei: -2.952%; Toxoplasma: 0.7837%.
With [H][C@@]12CCN(C(C)=O)C[C@]1([H])CCN(CCc1c[nH]cn1)C(=O)C2 the screen gave T. brucei: -5.598%; Toxoplasma: -6.784%.
With [H][C@@]12CC[C@H](Oc3cccc(F)c3)[C@]1([H])CN(C(=O)c1cncnc1)C2 the screen gave T. brucei: 8.433%; Toxoplasma: -14.54%.
With CNC(=O)C1CCCCN1C(=O)c1cn(CCOC)c2ccccc12 (stereo not shown) the screen gave T. brucei: -26.04%; Toxoplasma: -16.57%.
With CC(=O)N1CCCN(C(=O)Nc2ccccc2N2CCOC2=O)CC1 the screen gave T. brucei: 2.737%; Toxoplasma: -0.1729%.
With [H][C@]12CN(Cc3ccc(F)cc3)C[C@@]1([H])S(=O)(=O)CC[C@@H]2C(=O)N1CCCC1 the screen gave T. brucei: -47.49%; Toxoplasma: 0.06313%.
With COc1cccc(CNCCc2cc(F)cc3c2OCOC3)c1 the screen gave T. brucei: -1.636%; Toxoplasma: 11.69%.
With O=C(O)C(F)(F)F.[H][C@@]12CCN(C3CCOCC3)C[C@]1(C(=O)N1CCOCC1)CCO2 the screen gave T. brucei: -13.03%; Toxoplasma: 86.48%.
With O=S(=O)(C1CC1)N1CCC2(COCc3cnc(NCC4CC4)nc32)C1 (stereo not shown) the screen gave T. brucei: -6.517%; Toxoplasma: 9.689%.
With CC(Cn1ccnc1)NC(=O)N1CCCN(Cc2cccs2)CC1 (stereo not shown) the screen gave Toxoplasma: -39.2%.
With Clc1ccc(-n2nnnc2C2(NCc3ccco3)CCCCC2)cc1 the screen gave T. brucei: -10.68%; Toxoplasma: -8.567%.
With CCn1nc2c(cc1=O)CN(Cc1nc(-c3cccnc3)no1)CC2 the screen gave Toxoplasma: 1.343%.
With COCC1(C(=O)N[C@H]2CN(c3noc(C)n3)C[C@@H]2C2CC2)CCC1 the screen gave T. brucei: -1.736%; Toxoplasma: 10.82%.
With O=S(=O)(NC1CCN(CC(F)(F)F)C1)c1cc(F)cc(F)c1 (stereo not shown) the screen gave T. brucei: -60.29%; Toxoplasma: -26.37%.
With CC(C)(C)c1cc(=O)n2c(n1)SCC(C(=O)NCc1ccccn1)C2 (stereo not shown) the screen gave T. brucei: -3.657%; Toxoplasma: 23.18%.
With c1nc(N2CCCC2)cnc1C1CCNCC1 the screen gave T. brucei: -25.2%; Toxoplasma: 11.41%.
With Cc1cc(=O)[nH]c(NCCNC(=O)CN2CCCCCC2)n1 the screen gave T. brucei: -97.8%; Toxoplasma: -0.5945%.
With [H][C@@]12CCN(S(=O)(=O)CCC)[C@]1([H])CC[C@H](c1nc(C)no1)O2 the screen gave T. brucei: -24.18%; Toxoplasma: -5.561%.
With CSc1ncccc1C(=O)NCCC(O)c1cc(C)oc1C (stereo not shown) the screen gave T. brucei: 16.48%; Toxoplasma: 8.366%.
With CC(NS(C)(=O)=O)c1nc(-c2ccc(Br)cc2)no1 (stereo not shown) the screen gave T. brucei: -17.76%; Toxoplasma: -33.84%.
With Cc1ccc(CC(=O)N2CCN(C(C)c3ccccc3F)CC2)cn1 (stereo not shown) the screen gave T. brucei: -8.965%; Toxoplasma: -6.314%.
With O=C(O)C(F)(F)F.O=C(O)C(F)(F)F.O=C(O)C(F)(F)F.[H][C@]12C[C@@H](Cn3cccn3)N(c3nccs3)[C@@]1([H])CCN(C(C)C)C2 the screen gave T. brucei: -34.12%; Toxoplasma: -5.059%.
With Cc1cc(C)n(CCN2CCC(N(C)Cc3noc(C4CC4)n3)C2)n1 (stereo not shown) the screen gave T. brucei: -44.97%; Toxoplasma: 16.89%.
With COc1ccccc1C(C)(C)NC(=O)c1cc(NC(C)=O)ccc1F the screen gave T. brucei: -19.15%; Toxoplasma: -22.81%.

Some entries from above, unchanged:

| Compound | T. brucei | Toxoplasma |
|---|---|---|
| `O=C(O)C(F)(F)F.O=C(O)C(F)(F)F.O=C(O)C(F)(F)F.[H][C@]12C[C@@H](Cn3cccn3)N(c3nccs3)[C@@]1([H])CCN(C(C)C)C2` | -34.12 | -5.059 |
| `CCOCC(=O)NC1(c2cccc(Cl)c2)CC1` | -34.93 | 3.161 |
| `c1nc(N2CCCC2)cnc1C1CCNCC1` | -25.2 | 11.41 |
| `COCCN(Cc1cnn(C)c1)C(=O)C1COc2c(cccc2OC)C1` (stereo not shown) | -53.47 | 5.066 |
| `COc1cccc(CNCCc2cc(F)cc3c2OCOC3)c1` | -1.636 | 11.69 |

The values are deposited in ChEMBL (CHEMBL3988442, “University of Dundee, Small-Polar-MMV Screening Library” (2021)).